Data from patent publication US9908880B2, “Substituted imidazoquinolines” (4SC AG, priority 2008, dated 2018).
For at least one compound, name, drawing or mass did not settle the structure.

System: PCIR-1 cells
Assay: Cytokine mRNA induction in PCIR-1 human cancer cell line (TaqMan PCR)
Type: cell-based
Conditions: PCIR-1 cells treated with TLR agonist reference compounds
Experimental: Expression of IL8 mRNA was measured with TaqMan PCR after 16 hours incubation of cells with H2006, LPS or Resiquimod alone and in combination with cloroquine.
Cellular assays using a human cancer cell line (PCIR-1) or human PBMC fractions to test compounds for activating TLR7 are established.
Specificity for TLR7 and 9 was checked by adding chloroquine, which abrogates signaling through endosomal TLRs. The PCIR-1 system is suited for measuring the interferone-linked cytokine IP10 by a bead-based assay in the 384-well format.
TLR mRNA Expression in PCIR-1 (TaqMan PCR Analysis)
Also response to poly I-C double-stranded RNA (TLR 3 ago); 40-fold induction of IP-10 after 15 h) and MALP-2 (TLR 2/6 hetero-dimer ago, 100-fold induction of IP-10 after 15 h) is detected.
In contrast TLR4 signaling by LPS is not affected (FIG. 1).

Question: `CCOCc1nc2c(N)nc3ccccc3c2n1CC(C)(C)O` [resiquimod] was tested. Which “cytokine mRNA induction” value did it give?
Answer: strong cytokine mRNA induction
